“Also recorded” adds a separate entry of the source. At least one peptide structure holds a part that was inferred or is arguable (an end, a ring closure or a residue). No end group written: not given here.
Tests used:
[1] = test system: human keratin intermediate filaments; assay: In vitro keratin filament assembly assay (light scattering, electron microscopy); format: biochemical
preformed keratin IFs = assay: Disassembly of preformed keratin IFs by synthetic peptides (light scattering, electron microscopy); format: biochemical, human; details: for reversibility of disassembly: 1:1 molar ratio; for time to disassembly of preformed IFs down to single coiled-coil molecules: 1:1 molar ratio peptide to preformed keratin IFs, light scattering and electron microscopy
Experimental: In vitro filament assembly assays (1-1.5 mg/ml) were performed by dialysis for 2 hours each into decreasing concentrations of urea (6, 4, 2, 1 and 0M) containing 5 mM Tris-HCl, pH 7.6, 1 mM EDTA, 1 mM dithiothreitol. […]. Light scattering was measured at 310 nm in a Beckman DU65 spectrophotometer. Synthetic peptides (1-30 μl of a 0.5-2 mg/ml solution) were added to 1 ml samples of keratin filaments, incubated at 37° C., and filament assembly was measured by light scattering. […] Samples of these reactions were also collected for visualization by electron microscopy and stopped by negative staining with freshly-prepared 0.7% uranyl acetate.
Peptides corresponding to the H1, beginning of 1A, and full-length 1A regions (SEQ ID NO: 1-3) of the human keratin 1 chain were individually mixed with preformed keratin IFs in vitro at a 1:1 molar ratio.

| Sequence | interference with the inhibition promoted by the H1 and 1A peptides ([1]; in vitro) | inhibition of filament formation by the peptide itself ([1]; in vitro, listed as L2) | reversibility of disassembly (preformed keratin IFs) | time to disassembly of preformed IFs down to single coiled-coil molecules (preformed keratin IFs) [min] | inhibition of formation of IFs, light scattering ([1]; 1-30 μl of 0.5-2 mg/ml peptide added to 1 ml keratin filament samples, 37° C., light scattering at 310 nm) | inhibition of keratin filament formation in vitro, electron microscopy ([1]; electron microscopy, negative staining) |
| --- | --- | --- | --- | --- | --- | --- |
| SKAEAETF [L2 peptide, SKAEAETF] | does interfere with the in vitro inhibition promoted by the H1 and 1A peptides | does not interfere with IF assembly; also recorded: does not itself inhibit filament formation | – | – | – | – |
| REQIKSLNNQFASFIDKVRFMEQQNKVLQTKWELL [1A peptide, REOIKSLNNQFASFIDKVRFMEOQNKVLQTKWELL] | – | – | reversible upon removal of the peptide | ≤ 30 | – | – |
| PVCSPGGIQEVTINQSLLQPLNVEIDPEIQKVKSRE [H1 peptide] | – | – | reversible upon removal of the peptide | ≤ 30 | effectively inhibited the formation of IFs | effective in inhibiting keratin filament formation |
